Measured values reported in the supplement of paper PMC10849652.
This is one part of the list.

Chains of the proteins cited; added tags and fusions are not shown. Lines headed by an entry give the natural chain unless they say otherwise; changes in a name come on top.
UniProt Q13542: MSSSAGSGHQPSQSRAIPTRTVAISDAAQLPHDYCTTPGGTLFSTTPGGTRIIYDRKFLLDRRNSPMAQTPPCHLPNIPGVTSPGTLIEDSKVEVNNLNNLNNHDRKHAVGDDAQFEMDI
UniProt O95834: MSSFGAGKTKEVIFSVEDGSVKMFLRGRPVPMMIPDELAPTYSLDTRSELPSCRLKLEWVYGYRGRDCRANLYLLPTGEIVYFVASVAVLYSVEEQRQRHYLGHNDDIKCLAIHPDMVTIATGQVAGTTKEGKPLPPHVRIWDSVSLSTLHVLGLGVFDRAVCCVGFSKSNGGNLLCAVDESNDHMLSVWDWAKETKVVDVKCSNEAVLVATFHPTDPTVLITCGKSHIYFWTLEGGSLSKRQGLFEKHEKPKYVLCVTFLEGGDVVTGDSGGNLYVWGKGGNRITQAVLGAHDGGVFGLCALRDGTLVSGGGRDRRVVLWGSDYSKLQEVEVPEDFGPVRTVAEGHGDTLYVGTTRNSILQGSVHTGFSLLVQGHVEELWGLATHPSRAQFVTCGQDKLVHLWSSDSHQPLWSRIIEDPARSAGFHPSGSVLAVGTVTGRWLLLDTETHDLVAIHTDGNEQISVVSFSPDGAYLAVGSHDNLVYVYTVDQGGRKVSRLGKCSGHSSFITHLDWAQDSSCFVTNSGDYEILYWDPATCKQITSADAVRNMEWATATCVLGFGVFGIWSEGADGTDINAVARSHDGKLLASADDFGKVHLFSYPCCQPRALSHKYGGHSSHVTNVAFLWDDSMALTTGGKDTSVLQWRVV
UniProt P06733, whole entry, looked up: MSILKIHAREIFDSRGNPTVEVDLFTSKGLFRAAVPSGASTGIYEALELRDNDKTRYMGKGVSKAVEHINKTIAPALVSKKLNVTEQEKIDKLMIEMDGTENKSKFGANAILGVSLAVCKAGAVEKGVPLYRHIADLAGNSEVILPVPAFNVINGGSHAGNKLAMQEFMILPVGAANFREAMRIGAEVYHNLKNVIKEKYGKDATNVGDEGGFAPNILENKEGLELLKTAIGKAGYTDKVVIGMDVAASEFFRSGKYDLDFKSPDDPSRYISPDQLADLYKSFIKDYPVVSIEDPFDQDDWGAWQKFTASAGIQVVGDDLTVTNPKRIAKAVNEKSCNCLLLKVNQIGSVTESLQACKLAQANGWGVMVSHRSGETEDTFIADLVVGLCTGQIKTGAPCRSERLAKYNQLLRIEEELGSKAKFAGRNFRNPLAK
UniProt Q96KQ7: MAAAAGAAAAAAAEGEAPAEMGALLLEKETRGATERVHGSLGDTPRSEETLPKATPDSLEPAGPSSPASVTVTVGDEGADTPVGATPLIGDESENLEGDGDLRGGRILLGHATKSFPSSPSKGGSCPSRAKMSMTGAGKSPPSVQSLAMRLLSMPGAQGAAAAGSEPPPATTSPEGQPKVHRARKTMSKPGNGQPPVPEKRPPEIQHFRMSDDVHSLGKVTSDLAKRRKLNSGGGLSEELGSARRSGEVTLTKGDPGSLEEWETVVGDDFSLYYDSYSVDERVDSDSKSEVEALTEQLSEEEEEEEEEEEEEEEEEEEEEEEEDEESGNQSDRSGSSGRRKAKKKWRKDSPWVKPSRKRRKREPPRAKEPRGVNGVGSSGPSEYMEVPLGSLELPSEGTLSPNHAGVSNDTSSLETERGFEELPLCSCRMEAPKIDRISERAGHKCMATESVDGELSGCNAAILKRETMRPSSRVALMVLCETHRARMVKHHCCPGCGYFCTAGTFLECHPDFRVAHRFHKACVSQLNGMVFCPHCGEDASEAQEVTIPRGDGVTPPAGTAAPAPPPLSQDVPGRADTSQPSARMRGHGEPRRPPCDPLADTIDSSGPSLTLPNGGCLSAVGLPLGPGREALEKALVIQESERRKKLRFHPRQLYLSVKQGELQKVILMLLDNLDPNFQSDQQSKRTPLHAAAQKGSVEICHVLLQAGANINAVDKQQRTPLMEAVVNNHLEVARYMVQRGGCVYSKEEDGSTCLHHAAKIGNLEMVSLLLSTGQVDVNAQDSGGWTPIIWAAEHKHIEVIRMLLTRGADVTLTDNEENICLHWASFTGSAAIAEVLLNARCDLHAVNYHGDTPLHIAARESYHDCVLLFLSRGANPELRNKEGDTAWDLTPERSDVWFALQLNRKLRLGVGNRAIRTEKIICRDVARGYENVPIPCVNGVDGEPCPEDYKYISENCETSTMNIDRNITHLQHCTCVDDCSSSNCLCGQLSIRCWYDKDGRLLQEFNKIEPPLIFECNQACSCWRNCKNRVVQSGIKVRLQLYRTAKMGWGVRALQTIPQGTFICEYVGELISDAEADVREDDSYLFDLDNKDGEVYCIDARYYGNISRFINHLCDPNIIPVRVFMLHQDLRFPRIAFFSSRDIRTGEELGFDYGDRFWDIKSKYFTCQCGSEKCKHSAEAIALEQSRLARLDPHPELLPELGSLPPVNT
UniProt Q9UBQ5, whole entry, looked up: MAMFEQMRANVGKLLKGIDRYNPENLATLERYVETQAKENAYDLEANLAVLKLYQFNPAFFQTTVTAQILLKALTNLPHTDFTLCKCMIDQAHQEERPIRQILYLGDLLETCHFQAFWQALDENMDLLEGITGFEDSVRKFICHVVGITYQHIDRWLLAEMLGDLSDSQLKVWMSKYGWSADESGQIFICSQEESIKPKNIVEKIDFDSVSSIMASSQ
UniProt Q8IZ81: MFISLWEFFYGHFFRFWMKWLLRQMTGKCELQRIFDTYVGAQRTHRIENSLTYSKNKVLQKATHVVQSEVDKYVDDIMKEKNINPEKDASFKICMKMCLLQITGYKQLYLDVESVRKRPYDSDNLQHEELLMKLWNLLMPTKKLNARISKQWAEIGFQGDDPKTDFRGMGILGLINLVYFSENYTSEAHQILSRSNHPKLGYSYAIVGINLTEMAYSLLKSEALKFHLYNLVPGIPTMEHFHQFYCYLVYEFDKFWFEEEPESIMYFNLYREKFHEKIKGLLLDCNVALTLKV
UniProt Q7L2H7, whole entry, looked up: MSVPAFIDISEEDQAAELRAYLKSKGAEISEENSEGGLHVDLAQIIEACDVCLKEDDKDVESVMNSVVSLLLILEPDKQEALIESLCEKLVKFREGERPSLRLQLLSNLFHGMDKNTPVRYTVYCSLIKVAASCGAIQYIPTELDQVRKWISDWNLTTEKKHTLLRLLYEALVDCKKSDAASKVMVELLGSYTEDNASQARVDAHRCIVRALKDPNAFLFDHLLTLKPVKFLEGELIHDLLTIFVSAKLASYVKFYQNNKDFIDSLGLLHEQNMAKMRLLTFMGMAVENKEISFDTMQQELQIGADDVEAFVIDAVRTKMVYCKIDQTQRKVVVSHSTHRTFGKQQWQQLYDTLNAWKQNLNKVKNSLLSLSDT
UniProt Q32P44: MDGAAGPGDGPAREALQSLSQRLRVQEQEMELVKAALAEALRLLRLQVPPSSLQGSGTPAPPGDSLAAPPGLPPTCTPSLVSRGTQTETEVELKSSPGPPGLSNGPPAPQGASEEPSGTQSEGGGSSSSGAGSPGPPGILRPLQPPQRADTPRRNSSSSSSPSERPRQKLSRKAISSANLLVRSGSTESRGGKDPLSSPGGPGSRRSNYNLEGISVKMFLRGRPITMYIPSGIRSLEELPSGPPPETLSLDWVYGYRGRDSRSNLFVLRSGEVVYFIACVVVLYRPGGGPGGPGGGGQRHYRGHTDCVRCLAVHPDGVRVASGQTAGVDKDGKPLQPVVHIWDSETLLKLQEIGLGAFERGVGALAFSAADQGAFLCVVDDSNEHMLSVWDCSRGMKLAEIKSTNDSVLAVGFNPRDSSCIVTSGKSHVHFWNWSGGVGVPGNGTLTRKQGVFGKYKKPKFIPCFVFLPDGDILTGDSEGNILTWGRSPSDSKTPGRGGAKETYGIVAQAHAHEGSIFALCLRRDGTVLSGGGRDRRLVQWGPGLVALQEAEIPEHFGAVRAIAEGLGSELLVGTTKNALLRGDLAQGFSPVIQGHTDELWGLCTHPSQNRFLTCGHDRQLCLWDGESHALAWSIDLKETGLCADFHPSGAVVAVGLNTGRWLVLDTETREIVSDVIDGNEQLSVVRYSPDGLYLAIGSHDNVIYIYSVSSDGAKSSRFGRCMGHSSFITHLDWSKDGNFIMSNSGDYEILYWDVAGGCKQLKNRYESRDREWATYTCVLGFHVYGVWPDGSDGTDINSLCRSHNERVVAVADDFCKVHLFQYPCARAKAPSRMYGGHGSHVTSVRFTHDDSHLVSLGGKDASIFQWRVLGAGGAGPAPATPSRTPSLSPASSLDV
UniProt Q13541: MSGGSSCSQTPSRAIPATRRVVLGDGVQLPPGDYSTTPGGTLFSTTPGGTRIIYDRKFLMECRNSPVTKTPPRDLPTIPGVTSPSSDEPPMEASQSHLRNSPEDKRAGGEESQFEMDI
UniProt Q9H9T3: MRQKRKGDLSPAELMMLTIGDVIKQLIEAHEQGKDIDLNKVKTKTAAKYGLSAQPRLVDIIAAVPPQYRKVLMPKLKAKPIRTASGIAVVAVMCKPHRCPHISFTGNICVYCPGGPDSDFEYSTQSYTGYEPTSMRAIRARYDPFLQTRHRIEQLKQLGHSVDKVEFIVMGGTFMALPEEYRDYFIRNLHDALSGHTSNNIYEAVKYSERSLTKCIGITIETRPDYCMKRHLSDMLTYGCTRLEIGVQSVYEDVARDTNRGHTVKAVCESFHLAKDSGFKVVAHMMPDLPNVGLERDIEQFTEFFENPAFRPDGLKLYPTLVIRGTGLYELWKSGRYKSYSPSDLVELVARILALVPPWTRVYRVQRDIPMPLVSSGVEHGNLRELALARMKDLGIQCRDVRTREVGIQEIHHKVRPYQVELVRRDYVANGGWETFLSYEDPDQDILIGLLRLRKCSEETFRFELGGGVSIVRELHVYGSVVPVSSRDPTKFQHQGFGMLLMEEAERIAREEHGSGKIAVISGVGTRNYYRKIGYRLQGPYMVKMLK
UniProt Q96EB1: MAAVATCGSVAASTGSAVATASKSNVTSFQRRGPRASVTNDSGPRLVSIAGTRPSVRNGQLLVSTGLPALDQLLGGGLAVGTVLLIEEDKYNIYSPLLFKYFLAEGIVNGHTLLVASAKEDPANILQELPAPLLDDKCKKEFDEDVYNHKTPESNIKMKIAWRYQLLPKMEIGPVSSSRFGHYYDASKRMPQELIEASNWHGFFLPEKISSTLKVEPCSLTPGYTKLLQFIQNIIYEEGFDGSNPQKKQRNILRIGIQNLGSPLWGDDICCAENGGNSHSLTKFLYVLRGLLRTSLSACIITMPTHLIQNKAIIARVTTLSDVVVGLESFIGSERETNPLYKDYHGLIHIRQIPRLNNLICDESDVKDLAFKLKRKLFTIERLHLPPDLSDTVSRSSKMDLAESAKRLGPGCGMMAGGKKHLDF
UniProt Q6IA86: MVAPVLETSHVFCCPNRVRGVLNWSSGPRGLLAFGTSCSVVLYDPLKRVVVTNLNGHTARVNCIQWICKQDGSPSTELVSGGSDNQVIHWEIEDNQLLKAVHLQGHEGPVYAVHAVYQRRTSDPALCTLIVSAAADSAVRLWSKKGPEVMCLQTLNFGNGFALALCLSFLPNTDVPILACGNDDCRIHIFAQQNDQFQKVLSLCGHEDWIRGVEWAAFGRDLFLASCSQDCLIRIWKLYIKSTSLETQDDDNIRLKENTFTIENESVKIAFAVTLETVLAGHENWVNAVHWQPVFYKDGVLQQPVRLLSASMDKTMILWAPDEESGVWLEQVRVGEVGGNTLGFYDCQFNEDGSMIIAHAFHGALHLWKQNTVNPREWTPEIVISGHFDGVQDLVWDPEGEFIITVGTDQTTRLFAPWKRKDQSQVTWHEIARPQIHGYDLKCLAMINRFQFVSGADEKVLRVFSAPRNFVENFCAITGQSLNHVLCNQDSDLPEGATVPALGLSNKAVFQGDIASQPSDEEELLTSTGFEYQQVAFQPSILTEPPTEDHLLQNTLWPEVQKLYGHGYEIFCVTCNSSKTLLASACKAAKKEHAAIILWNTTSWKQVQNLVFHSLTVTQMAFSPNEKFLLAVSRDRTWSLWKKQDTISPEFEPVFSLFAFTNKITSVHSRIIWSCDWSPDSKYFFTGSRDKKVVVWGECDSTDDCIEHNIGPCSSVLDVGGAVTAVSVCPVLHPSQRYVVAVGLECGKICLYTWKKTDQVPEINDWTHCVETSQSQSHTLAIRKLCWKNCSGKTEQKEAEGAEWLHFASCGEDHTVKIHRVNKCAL
UniProt O75821, whole entry, looked up: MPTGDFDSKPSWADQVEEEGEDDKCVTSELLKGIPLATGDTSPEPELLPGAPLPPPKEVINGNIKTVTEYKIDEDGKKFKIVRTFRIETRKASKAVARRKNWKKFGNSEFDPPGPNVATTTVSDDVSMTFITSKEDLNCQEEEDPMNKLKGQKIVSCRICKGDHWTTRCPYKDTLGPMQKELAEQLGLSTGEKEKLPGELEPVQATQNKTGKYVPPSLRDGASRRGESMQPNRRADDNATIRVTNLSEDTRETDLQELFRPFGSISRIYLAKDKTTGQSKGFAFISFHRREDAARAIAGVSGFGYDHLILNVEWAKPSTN

Key:
Test in all cases: log2 fold change, soluble protein after heating vs DMSO (PISA); higher = thermal stabilisation; K562 cells, 10 uM, 30 min; active = over 0.2 and 3.5 SD of the protein, either way, in both replicates (recomputed)
[1] = compound: CC[C@@H]1C(=O)N(C)c2cnc(Nc3ccc(C(=O)NC4CCN(C)CC4)cc3OC)nc2N1C1CCCC1
Procedure, shortened: (§1)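 Soluble protein was quantified by TMTpro 16plex LC-MS/MS after channel sums were equalised. It was obtained as the supernatant after 21,000xg for 90 min from pooled aliquots of K562 cells (2×10^6 cells/mL, 10 μM compound, 30 min) heated for 3 min across 48°C-58°C and extracted in PBS with 0.5% NP-40 at 4°C. Thermal stability values are relative to control samples and come from duplicates. They are given as log2 fold changes.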

volasertib = compound: CC[C@@H]1C(=O)N(C)c2cnc(Nc3ccc(C(=O)N[C@H]4CC[C@H](N5CCN(CC6CC6)CC5)CC4)cc3OC)nc2N1C(C)C [volasertib]
Procedure, shortened: as §1

[2] = compound: CC[C@H](C)N1C=C(C2=C(C=C(C=C21)C3=CN=C(C=C3)N4CCNCC4)C(=O)NCC5=C(C=C(NC5=O)C)C)C
Procedure, shortened: as §1

epoxomicin = compound: CC[C@H](C)[C@@H](C(=O)N[C@@H]([C@@H](C)O)C(=O)N[C@@H](CC(C)C)C(=O)[C@]1(CO1)C)NC(=O)[C@H]([C@@H](C)CC)N(C)C(=O)C [epoxomicin]
Procedure, shortened: as §1

[3] = compound: CCn1c(C(=O)N(C2CC2)C2CC2)cc2c3c(ncn3C)c(Nc3cc(C)n(C)n3)nc21
Procedure, shortened: as §1

[4] = compound: CCn1cc(-c2ccnc3[nH]c(-c4cccc(CN(C)C)c4)cc23)c(-c2ccc(NC(=O)N(C)C)cc2)n1
Procedure, shortened: as §1

[5] = compound: CN(C)CC(=O)Nc1ccc2[nH]c(=O)c3ccccc3c2c1
Procedure, shortened: as §1

rosiglitazone = compound: CN(CCOC1=CC=C(C=C1)C[C@H]2C(=O)NC(=O)S2)C3=CC=CC=N3 (racemic) [rosiglitazone]
Procedure, shortened: as §1

[6] = compound: CN1C2=C(C3=C1C(=O)N(N=C3)CC4=CC(=CC=C4)N)SC(=C2)S(=O)C
Procedure, shortened: as §1

[7] = compound: CN1CCC(CNc2ccc3ncc(-c4cccc(OC(F)(F)F)c4)n3n2)CC1
Procedure, shortened: as §1

Measured: log2 fold change

EIF4B (UniProt P23588)
inactive: [1] 0.005 | volasertib 0.113 | [2] -0.038 | epoxomicin -0.004 | [3] 0 | [4] 0.041 | [5] -0.017 | rosiglitazone -0.001 | [6] 0.005 | [7] 0.035

EIF4EBP2 (UniProt Q13542)
inactive: [1] 0.049 | volasertib 0.04 | [2] -0.041 | epoxomicin 0.263 | [3] -0.039 | [4] -0.022 | [5] 0.167 | rosiglitazone 0.021 | [6] -0.017 | [7] -0.058

EML2 isoform 3 (UniProt O95834)
inactive: [1] 0.018 | volasertib 0.037 | [2] 0.051 | epoxomicin 0.029 | [3] 0.038 | [4] -0.042 | [5] 0.012 | rosiglitazone 0.053 | [6] -0.086 | [7] -0.107

ENO1 (UniProt P06733)
inactive: [1] -0.017 | volasertib 0.081 | [2] -0.051 | epoxomicin -0.011 | [3] 0.007 | [4] 0.029 | [5] -0.009 | rosiglitazone 0.021 | [6] -0.119 | [7] -0.03

EMC2 (UniProt Q15006)
inactive: [1] -0.002 | volasertib -0.005 | [2] 0.019 | epoxomicin -0.018 | [3] -0.007 | [4] -0.034 | [5] 0.005 | rosiglitazone -0.026 | [6] -0.047 | [7] 0.006

EHMT2 (UniProt Q96KQ7)
inactive: [1] 0 | volasertib -0.06 | [2] 0.016 | epoxomicin 0.05 | [3] 0.041 | [4] 0.079 | [5] -0.028 | rosiglitazone -0.006 | [6] 0.029 | [7] -0.092

EIF3K (UniProt Q9UBQ5)
inactive: [1] -0.048 | volasertib -0.054 | [2] 0.053 | epoxomicin 0.077 | [3] 0.031 | [4] -0.028 | [5] 0.018 | rosiglitazone 0.024 | [6] -0.02 | [7] -0.001

EIF2B1 (UniProt Q14232)
inactive: [1] 0.002 | volasertib 0.026 | [2] 0 | epoxomicin 0.044 | [3] 0.006 | [4] 0.003 | [5] 0.018 | rosiglitazone -0.008 | [6] -0.083 | [7] -0.022

ELOB (UniProt Q15370)
inactive: [1] -0.042 | volasertib 0.056 | [2] -0.008 | epoxomicin -0.002 | [3] 0.03 | [4] -0.028 | [5] -0.007 | rosiglitazone -0.006 | [6] -0.032 | [7] -0.053

EHHADH (UniProt Q08426)
inactive: [1] 0.042 | volasertib -0.012 | [2] 0.057 | epoxomicin -0.047 | [3] -0.091 | [4] -0.062 | [5] -0.007 | rosiglitazone -0.014 | [6] -0.047 | [7] -0.049

EIF2D (UniProt P41214)
inactive: [1] -0.036 | volasertib -0.558 | [2] 0.034 | epoxomicin 0.019 | [3] -0.139 | [4] 0.013 | [5] 0.065 | rosiglitazone 0.112 | [6] 0.105 | [7] -0.112

ELMOD2 (UniProt Q8IZ81)
inactive: [1] -0.004 | volasertib -0.1 | [2] 0.005 | epoxomicin -0.028 | [3] 0.008 | [4] 0.001 | [5] 0.007 | rosiglitazone 0.082 | [6] -0.057 | [7] -0.002

EIF3M (UniProt Q7L2H7)
inactive: [1] -0.065 | volasertib -0.241 | [2] 0.058 | epoxomicin 0.027 | [3] -0.021 | [4] -0.015 | [5] 0.03 | rosiglitazone 0.034 | [6] 0.027 | [7] -0.072

EIF3E (UniProt P60228)
inactive: [1] 0.056 | volasertib -0.371 | [2] 0.155 | epoxomicin 0.089 | [3] -0.082 | [4] 0.09 | [5] 0.043 | rosiglitazone 0.09 | [6] 0.198 | [7] -0.047

ENO1 isoform 2 (UniProt P06733)
inactive: [1] 0.017 | volasertib 0.036 | [2] -0.11 | epoxomicin 0.121 | [3] -0.047 | [4] -0.143 | [5] -0.022 | rosiglitazone 0.016 | [6] -0.027 | [7] -0.135

ENGASE (UniProt Q8NFI3)
inactive: [1] 0.022 | volasertib -0.046 | [2] 0.02 | epoxomicin -0.003 | [3] -0.013 | [4] -0.007 | [5] 0.028 | rosiglitazone 0.041 | [6] -0.064 | [7] -0.016

EML3 isoform 2 (UniProt Q32P44)
inactive: [1] 0.058 | volasertib 0.032 | [2] 0.007 | epoxomicin -0.093 | [3] -0.025 | [4] 0.066 | [5] -0.113 | rosiglitazone 0.103 | [6] 0.007 | [7] 0.004

EIF4A2 isoform 2 (UniProt Q14240)
inactive: [1] -0.045 | volasertib -0.109 | [2] 0.062 | epoxomicin -0.019 | [3] 0.003 | [4] 0 | [5] 0.017 | rosiglitazone 0.05 | [6] -0.056 | [7] -0.095

Quoted at random: two entries already listed
ENGASE (UniProt Q8NFI3)
inactive: [1] 0.022 | volasertib -0.046 | [2] 0.02 | epoxomicin -0.003 | [3] -0.013 | [4] -0.007 | [5] 0.028 | rosiglitazone 0.041 | [6] -0.064 | [7] -0.016

ENO1 isoform 2 (UniProt P06733)
inactive: [1] 0.017 | volasertib 0.036 | [2] -0.11 | epoxomicin 0.121 | [3] -0.047 | [4] -0.143 | [5] -0.022 | rosiglitazone 0.016 | [6] -0.027 | [7] -0.135

The list goes on:

EEF1E1 (UniProt O43324)
inactive: [1] 0.033 | volasertib -0.068 | [2] 0.05 | epoxomicin -0.108 | [3] -0.057 | [4] 0.003 | [5] -0.038 | rosiglitazone 0.012 | [6] 0.063 | [7] -0.051

EIF2A (UniProt Q9BY44)
inactive: [1] 0.029 | volasertib -0.059 | [2] 0.055 | epoxomicin -0.052 | [3] 0.018 | [4] 0.021 | [5] -0.049 | rosiglitazone -0.041 | [6] 0.027 | [7] 0.023

ENO2 (UniProt P09104)
inactive: [1] 0.029 | volasertib 0.066 | [2] -0.034 | epoxomicin -0.008 | [3] 0.014 | [4] 0.021 | [5] 0.026 | rosiglitazone 0.009 | [6] -0.052 | [7] -0.068

EPB41L1 (UniProt Q9H4G0)
inactive: [1] -0.121 | volasertib -0.088 | [2] 0.027 | epoxomicin -0.006 | [3] -0.001 | [4] 0.06 | [5] -0.01 | rosiglitazone 0.048 | [6] 0.032 | [7] -0.146

EIF4EBP1 (UniProt Q13541)
inactive: [1] 0.059 | volasertib 0.095 | [2] -0.053 | epoxomicin 0.043 | [3] 0.05 | [4] -0.051 | [5] 0.002 | rosiglitazone -0.015 | [6] 0.014 | [7] 0.059

ELP3 (UniProt Q9H9T3)
inactive: [1] 0 | volasertib -0.054 | [2] 0.032 | epoxomicin 0.019 | [3] -0.035 | [4] -0.032 | [5] 0.013 | rosiglitazone -0.008 | [6] -0.005 | [7] -0.056

ELP4 isoform 3 (UniProt Q96EB1)
inactive: [1] 0.055 | volasertib -0.039 | [2] -0.037 | epoxomicin 0.045 | [3] 0.008 | [4] -0.054 | [5] -0.023 | rosiglitazone -0.007 | [6] -0.047 | [7] 0.049

EIF3F (UniProt O00303)
inactive: [1] -0.01 | volasertib -0.23 | [2] 0.064 | epoxomicin 0.06 | [3] -0.02 | [4] -0.026 | [5] 0.043 | rosiglitazone 0.008 | [6] 0.042 | [7] -0.005

ENOPH1 (UniProt Q9UHY7)
inactive: [1] -0.042 | volasertib -0.182 | [2] 0.103 | epoxomicin 0.027 | [3] -0.154 | [4] -0.15 | [5] 0.031 | rosiglitazone 0.125 | [6] -0.031 | [7] -0.356

ELP2 isoform 6 (UniProt Q6IA86)
inactive: [1] -0.004 | volasertib -0.02 | [2] -0.015 | epoxomicin -0.012 | [3] -0.024 | [4] -0.016 | [5] 0.008 | rosiglitazone -0.002 | [6] -0.036 | [7] -0.005

EIF3G (UniProt O75821)
inactive: [1] -0.025 | volasertib -0.213 | [2] 0.028 | epoxomicin -0.026 | [3] -0.018 | [4] -0.013 | [5] 0.012 | rosiglitazone 0.019 | [6] 0.045 | [7] -0.129

ENDOG (UniProt Q14249)
inactive: [1] -0.063 | volasertib -0.068 | [2] 0.007 | epoxomicin 0.146 | [3] -0.062 | [4] -0.015 | [5] -0.006 | rosiglitazone 0.025 | [6] -0.012 | [7] 0.056
